The target in experiment [1] is BdCOPT3 (Brachypodium distachyon) (UniProt I1HS28). As to the kind of experiment: two-hybrid; split-ubiquitin membrane yeast two-hybrid (MYTH); bait COPT-Cub-PLV in THY.AP4, prey COPT-NubG in THY.AP5; diploid cells, 2 days of growth on SC medium lacking adenine and histidine; verified by beta-galactosidase assay.
Experiment [2] addresses BdCOPT4 (Brachypodium distachyon) (UniProt I1IQG8). The description is as above.

Sequences of proteins named here, by UniProt entry; tags and fusion partners are left off. A change or cut given only in a name is not applied to a line headed by its entry.
UniProt I1HS28: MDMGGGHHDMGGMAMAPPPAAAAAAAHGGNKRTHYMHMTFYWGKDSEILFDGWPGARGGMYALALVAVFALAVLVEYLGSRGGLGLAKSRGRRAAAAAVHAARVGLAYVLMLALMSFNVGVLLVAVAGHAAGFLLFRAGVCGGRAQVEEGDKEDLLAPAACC
UniProt I1IQG8: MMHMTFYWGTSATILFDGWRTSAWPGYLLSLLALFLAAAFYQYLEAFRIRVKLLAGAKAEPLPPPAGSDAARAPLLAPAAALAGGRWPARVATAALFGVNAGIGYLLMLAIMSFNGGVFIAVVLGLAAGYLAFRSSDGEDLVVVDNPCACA
UniProt I1GT99: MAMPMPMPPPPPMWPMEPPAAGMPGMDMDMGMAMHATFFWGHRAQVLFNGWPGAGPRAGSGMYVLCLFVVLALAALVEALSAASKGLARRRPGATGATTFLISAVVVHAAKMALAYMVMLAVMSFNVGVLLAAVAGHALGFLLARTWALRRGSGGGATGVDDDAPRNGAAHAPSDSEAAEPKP

The values that follow come from PMC4039008.

These are yes or no findings as the source states them, for the method shown. A result given as binding can be weak or reduced; the word gives no strength.

As to BdCOPT1 (from UniProt I1GT99), the binding entry in experiment [1] and in experiment [2] was “binds” in each case.
Consider BdCOPT3 (from UniProt I1HS28), for which, in experiment [2], the binding entry is “binds”.
